Binding data for 3 substances are collected here from article PMC7806720, “Restoration of the reduced CLSP activity alleviates memory impairment in Alzheimer disease” (Translational Psychiatry, 2021).

Protein sequences, listed by entry. Tags and fused reporters are not part of them. Lines headed by an entry give the natural chain unless they say otherwise; changes in a name come on top. Residues count along the entry.
UniProt Q9NZT1: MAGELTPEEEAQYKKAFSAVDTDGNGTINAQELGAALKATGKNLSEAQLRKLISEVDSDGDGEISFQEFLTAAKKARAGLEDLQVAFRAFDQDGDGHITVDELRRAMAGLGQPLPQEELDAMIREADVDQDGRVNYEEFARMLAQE
UniProt P02649, residues 19-317: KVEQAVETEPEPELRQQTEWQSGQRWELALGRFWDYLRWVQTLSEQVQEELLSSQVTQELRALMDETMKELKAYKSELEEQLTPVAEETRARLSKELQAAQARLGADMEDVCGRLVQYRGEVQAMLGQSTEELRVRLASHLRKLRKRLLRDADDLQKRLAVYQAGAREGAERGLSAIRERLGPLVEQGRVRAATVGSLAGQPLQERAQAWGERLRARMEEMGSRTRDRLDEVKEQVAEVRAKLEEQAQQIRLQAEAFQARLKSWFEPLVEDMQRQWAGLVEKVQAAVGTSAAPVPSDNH
UniProt Q15848, residues 19-244: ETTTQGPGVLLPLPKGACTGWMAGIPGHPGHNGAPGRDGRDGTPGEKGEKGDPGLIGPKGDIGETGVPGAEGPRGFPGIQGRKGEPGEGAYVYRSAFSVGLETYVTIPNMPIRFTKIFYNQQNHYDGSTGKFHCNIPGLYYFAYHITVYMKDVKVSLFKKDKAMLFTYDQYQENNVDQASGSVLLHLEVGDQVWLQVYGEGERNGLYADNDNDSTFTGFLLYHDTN

Experiment [1] addresses calmodulin-like skin protein (CLSP), C-terminally MycHis-tagged (human) (UniProt Q9NZT1). Description: pull-down; lysates of F11 cells overexpressing C-terminally HA-tagged proteins mixed with CLSP-MycHis-conjugated sepharose 4B, 4 °C overnight; precipitates immunoblotted with HA and myc antibodies; only the target purified. Background: In western blotting, separated proteins are transferred to a membrane and probed.

Experiment [2] shares this target. Description: pull-down; CLSP-conjugated sepharose 4B beads; ApoE and adiponectin each in the presence or absence of the other (Supplementary Fig. S7A); details not shown.

Results are given in words; binding and its absence hold for the method and conditions named. In cells and extracts the contact can be indirect. Some entries that bind do so weakly or less than the wild type.

Regarding “apolipoprotein E3, C-terminally tagged with HA (from UniProt P02649 19-317)”, the binding entry in experiment [1] is “binds”. As for “adiponectin (pull-down of Supplementary Fig. S7A) (from UniProt Q15848 19-244)”, in experiment [2], the binding result is listed as “binds”. In the case of “adiponectin, C-terminally tagged with HA (from UniProt Q15848 19-244)”, the binding entry in experiment [1] is on record as “binds”.
